Data taken from PMC12356973.
No constants are given. Whether binding was seen depends on the method and setting. In cells and extracts the contact can be indirect. Some results given as binding are weak or reduced against the parent protein; the word gives no strength.

By UniProt entry, the sequences of proteins in these tests, tags left out. Residues count along the entry.
UniProt P38646, residues 47-679: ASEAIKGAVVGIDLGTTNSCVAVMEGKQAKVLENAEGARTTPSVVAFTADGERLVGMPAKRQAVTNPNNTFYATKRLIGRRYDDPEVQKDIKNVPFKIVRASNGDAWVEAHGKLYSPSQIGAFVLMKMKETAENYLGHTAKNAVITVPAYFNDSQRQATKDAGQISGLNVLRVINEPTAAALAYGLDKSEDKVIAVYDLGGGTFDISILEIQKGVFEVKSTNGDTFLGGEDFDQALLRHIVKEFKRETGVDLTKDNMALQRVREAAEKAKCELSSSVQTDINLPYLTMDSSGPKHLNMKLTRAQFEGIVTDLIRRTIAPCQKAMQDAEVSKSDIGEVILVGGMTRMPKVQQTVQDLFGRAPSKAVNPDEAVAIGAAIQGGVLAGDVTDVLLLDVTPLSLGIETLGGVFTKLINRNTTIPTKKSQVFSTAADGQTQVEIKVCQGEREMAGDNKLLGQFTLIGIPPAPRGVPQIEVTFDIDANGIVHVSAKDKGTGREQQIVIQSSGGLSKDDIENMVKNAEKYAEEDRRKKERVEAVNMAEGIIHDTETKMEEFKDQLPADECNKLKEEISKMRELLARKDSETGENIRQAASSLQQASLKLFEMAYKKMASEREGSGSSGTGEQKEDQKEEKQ

B1: BOLA2 (protein, UniProt Q9H3K6 1-86)
chain: MELSAEYLREKLQRDLEAEHVEVEDTTLNRCSCSFRVLVVSAKFEGKPLLQRHRLVNACLAEELPHIHAFEQKTLTPDQWARERQK

How the values were obtained:
[1] = biological target: SARS-CoV-2 nsp10, Strep II-tagged (SARS-CoV-2) (UniProt P0DTD1); assay: co-IP
[2] = biological target: SARS-CoV-2 nsp14, Strep II-tagged (SARS-CoV-2) (UniProt P0DTD1); assay: co-IP

| Molecule | binding [1] | binding [2] |
| --- | --- | --- |
| PCBP1 (from UniProt Q15365 1-356) | binds | binds |
| HSPA9 (from UniProt P38646 47-679) | – | binds |
| B1 | binds | binds |
